Among the data in PubChem BioAssay AID588342 (National Center for Advancing Translational Sciences (NCATS), 2011) are Potency values, retold here.

Chains of the proteins cited; added tags and fusions are not shown.
UniProt P08659, whole entry, looked up: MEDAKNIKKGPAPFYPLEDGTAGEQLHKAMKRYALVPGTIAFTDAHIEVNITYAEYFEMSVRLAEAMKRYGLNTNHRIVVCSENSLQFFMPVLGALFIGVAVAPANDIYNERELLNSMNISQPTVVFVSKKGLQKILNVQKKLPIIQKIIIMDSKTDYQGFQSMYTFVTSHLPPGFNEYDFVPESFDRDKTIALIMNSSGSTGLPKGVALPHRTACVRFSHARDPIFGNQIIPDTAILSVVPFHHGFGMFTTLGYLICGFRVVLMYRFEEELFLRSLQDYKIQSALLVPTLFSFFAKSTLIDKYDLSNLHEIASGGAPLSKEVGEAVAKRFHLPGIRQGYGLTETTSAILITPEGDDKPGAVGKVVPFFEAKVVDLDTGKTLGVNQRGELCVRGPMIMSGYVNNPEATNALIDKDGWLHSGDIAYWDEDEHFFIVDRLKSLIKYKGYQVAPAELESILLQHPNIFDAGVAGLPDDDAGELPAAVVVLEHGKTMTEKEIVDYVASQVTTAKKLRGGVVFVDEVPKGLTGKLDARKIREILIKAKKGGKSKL

Only a part is listed here, and it is no random draw. Records with an inconclusive call do not appear. Active and inactive are the calls of the source. Calls follow the shape of the dose curve; as a rule, active = well fitted inhibition curve with a large enough effect; inconclusive = small, poorly fitted or top-dose-only effect; inactive = flat fitted curve, though single readings scatter.
Potency is read from the fitted curve at half-maximal effect.

This assay addresses Luciferin 4-monooxygenase (Photinus pyralis) (UniProt P08659). As to the kind of experiment: qHTS profiling assay for firefly luciferase inhibitor/activator using purifed enzyme and Km concentrations of substrates (counterscreen for miR-21 project). Also: nearly all actives have a fitted effect of over 55% in size. The following applies: purified FLuc, luminescence inhibition. The source says:
MLPCN Grant: 1 R21 NS059478-01 (miR-21 grant) Assay Provider: NCGC NCGC Assay Overview: Firefly (Photinus pyralis) luciferase is one of the most commonly used transcriptional reporters for a number of reasons. It is considered one of the more dynamically responsive reporters -that is, responsive to changes in reporter transcription - as it requires no post-translational modifications and is enzymatically active directly after protein synthesis (Wood, 1998). Additionally, the half-life of the luciferase protein is short relative to other reporter-gene products (Wood, 1995). […] Although light produced in a bioluminescence reaction is of lower intensity than that produced during fluorescence emission, this is offset by little to no background light inherent to luminescent assays. […] Accumulated intracellular FLuc protein can be measured as an increase in luminescence signal, upon addition of detection reagents (which contain high concentrations of FLuc substrates) commonly used in high-throughput screening. In cell-based reporter gene assays that use FLuc as the reporter gene to quantitate the potential influence of a given compound against the target biology, this apparent increase in luminescence can mistakenly be interpreted as identification of a compound that is active against the target of interest. […]
For `Cc1cc(=O)oc2cc(OCc3ccccc3)ccc12`, the Potency is active: 7.57 µM.
With `O=c1ccc2ccc(OCc3ccccc3)cc2o1`, the Potency was active: 12 µM.
